For nine molecules, binding results are on record in paper PMC12095548.

Protein sequences, listed by entry. Tags and fused reporters are not part of them.
UniProt P42945: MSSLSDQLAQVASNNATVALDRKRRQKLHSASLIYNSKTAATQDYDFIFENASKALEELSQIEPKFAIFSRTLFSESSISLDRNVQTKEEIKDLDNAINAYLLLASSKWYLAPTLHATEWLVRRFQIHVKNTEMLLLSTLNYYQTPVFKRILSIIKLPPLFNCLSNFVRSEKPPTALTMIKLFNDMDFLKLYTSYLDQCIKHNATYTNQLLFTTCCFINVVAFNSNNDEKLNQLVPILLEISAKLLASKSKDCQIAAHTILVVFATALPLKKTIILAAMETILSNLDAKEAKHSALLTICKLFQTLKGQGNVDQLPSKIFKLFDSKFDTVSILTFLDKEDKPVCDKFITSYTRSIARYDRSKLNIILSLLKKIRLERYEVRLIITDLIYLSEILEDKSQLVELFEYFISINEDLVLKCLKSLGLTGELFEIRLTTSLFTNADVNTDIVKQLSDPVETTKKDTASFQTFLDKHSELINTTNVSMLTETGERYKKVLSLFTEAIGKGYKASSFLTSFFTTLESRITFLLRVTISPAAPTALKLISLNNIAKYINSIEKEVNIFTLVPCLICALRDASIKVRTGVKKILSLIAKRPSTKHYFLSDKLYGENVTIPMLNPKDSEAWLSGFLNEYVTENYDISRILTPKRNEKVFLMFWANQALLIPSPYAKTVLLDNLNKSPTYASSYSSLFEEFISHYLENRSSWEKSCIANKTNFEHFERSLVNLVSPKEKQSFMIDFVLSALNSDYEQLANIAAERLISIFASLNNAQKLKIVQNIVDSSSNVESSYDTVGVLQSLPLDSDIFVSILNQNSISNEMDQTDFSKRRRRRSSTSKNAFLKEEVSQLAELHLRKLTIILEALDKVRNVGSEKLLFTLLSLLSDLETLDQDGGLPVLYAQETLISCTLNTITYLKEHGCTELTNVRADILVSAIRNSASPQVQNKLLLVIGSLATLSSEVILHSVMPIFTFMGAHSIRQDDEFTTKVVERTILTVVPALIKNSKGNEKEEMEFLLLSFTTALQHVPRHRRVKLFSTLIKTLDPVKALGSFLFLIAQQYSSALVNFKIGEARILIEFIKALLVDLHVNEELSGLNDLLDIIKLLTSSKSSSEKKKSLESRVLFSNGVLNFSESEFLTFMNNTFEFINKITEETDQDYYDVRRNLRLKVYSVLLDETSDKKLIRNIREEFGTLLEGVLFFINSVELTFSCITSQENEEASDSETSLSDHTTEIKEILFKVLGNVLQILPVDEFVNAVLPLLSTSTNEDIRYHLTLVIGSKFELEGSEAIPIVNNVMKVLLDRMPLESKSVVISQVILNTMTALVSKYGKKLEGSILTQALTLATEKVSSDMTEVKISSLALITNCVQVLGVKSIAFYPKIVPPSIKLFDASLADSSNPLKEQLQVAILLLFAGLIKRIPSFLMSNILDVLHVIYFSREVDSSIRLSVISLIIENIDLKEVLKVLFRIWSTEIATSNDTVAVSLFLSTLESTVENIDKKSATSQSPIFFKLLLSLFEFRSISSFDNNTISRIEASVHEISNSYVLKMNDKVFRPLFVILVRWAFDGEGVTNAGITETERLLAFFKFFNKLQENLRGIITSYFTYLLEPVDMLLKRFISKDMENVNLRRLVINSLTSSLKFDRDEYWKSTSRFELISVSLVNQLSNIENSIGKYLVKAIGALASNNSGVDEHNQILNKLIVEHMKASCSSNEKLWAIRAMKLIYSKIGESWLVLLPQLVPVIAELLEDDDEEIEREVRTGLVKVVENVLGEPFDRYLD
UniProt Q6Q547: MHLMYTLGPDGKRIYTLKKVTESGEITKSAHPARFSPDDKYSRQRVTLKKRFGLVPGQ
UniProt P28007: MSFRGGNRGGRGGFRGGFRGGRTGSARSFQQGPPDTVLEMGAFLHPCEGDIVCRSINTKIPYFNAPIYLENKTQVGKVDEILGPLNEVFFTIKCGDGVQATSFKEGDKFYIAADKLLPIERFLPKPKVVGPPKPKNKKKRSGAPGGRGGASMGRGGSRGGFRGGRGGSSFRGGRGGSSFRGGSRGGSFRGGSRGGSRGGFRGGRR
UniProt P33322: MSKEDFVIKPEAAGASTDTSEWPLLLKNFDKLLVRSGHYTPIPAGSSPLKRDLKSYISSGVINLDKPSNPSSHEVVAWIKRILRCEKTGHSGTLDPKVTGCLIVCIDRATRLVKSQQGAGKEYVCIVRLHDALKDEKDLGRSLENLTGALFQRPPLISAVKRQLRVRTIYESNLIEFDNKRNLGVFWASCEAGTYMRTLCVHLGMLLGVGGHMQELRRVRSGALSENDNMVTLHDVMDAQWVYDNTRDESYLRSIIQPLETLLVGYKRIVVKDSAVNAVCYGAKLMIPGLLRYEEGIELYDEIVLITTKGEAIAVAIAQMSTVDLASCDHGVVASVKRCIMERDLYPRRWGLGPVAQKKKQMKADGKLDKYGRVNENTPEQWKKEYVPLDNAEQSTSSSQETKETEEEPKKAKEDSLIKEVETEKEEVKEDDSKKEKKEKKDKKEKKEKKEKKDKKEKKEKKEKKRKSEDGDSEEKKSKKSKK
UniProt P32495: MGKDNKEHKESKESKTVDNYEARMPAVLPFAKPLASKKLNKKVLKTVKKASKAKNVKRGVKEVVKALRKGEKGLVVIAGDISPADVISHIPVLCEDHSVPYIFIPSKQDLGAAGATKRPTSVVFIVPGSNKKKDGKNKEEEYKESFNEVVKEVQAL

Assay in all cases: affinity purification with mass spectrometry; tandem affinity purification of an FTpA-tagged bait from yeast lysate (IgG Sepharose, TEV elution, FLAG agarose, FLAG peptide elution; 60 mM Tris-HCl pH 8.0, 50 mM NaCl, 40 mM KCl, 2 mM MgCl2); cells: wild type, krr1∆C1, or galactose-induced KRR1 or krr1∆C3; SDS-PAGE and semiquantitative MS
The target in test [1] is T1, Noc4-FTpA (Saccharomyces cerevisiae (yeast)) (UniProt Q06512).
T1 sequence: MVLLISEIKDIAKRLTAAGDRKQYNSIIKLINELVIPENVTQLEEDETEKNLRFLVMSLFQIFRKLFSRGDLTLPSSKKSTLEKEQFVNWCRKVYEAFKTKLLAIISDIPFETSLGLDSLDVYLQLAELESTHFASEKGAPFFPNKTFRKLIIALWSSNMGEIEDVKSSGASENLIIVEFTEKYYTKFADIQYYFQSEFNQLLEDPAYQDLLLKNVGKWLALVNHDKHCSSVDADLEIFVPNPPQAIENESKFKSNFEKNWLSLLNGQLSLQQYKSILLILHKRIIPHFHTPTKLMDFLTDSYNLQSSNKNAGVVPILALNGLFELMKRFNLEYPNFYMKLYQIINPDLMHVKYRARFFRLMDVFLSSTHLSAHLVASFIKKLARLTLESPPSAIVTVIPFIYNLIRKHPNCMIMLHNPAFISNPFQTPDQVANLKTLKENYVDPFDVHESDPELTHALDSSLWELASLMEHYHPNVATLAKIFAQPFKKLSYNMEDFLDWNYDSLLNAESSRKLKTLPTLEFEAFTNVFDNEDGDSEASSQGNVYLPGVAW

Test [2] deals with Utp10-FTpA (Saccharomyces cerevisiae (yeast)) (UniProt P42945).
Test [3] has as its target T1, Noc4-FTpA (Saccharomyces cerevisiae (yeast)). The source holds these as a separate data set.
Test [4] addresses Utp10-FTpA (Saccharomyces cerevisiae (yeast)) (UniProt P42945). The source holds these as a separate data set.
Test [5] concerns the target T2, Utp23-FTpA (Saccharomyces cerevisiae (yeast)) (UniProt Q12339).
T2 sequence: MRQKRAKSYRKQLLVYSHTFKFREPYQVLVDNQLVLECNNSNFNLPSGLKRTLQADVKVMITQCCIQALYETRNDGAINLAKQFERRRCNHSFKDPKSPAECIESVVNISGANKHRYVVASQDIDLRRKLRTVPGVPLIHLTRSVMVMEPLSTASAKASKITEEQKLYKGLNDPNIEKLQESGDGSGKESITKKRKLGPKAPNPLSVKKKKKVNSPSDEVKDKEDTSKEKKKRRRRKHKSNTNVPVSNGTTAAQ

Test [6] has as its target T3, Kri1-FTpA (Saccharomyces cerevisiae (yeast)) (UniProt P42846).
T3 sequence: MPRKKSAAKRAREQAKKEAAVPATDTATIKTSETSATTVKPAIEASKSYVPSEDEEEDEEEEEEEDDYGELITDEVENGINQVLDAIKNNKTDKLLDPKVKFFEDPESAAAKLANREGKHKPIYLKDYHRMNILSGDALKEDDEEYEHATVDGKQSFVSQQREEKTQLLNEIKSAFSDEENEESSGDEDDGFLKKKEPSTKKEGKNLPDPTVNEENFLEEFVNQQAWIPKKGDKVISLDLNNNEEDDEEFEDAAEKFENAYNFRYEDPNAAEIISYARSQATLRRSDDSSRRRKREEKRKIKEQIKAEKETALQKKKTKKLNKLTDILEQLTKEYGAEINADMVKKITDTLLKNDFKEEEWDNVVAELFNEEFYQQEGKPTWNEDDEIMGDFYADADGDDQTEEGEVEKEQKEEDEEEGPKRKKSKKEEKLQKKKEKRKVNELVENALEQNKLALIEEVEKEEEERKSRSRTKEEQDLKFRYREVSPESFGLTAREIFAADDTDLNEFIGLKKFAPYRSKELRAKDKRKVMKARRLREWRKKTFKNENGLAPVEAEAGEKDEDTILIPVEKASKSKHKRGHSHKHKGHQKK

Like-named read-outs stand apart in the source and are kept apart here. No constants are given. Whether binding was seen depends on the method and setting. In cells and extracts the contact can be indirect. A yes stands for co-enrichment or nearness to the bait. Other partners may have been found. For part of these data: Where a sequence is shown, tags or fusion partners need not be part of it.

For the molecule Nop10 (from UniProt Q6Q547 1-58), the binding entry in test [1] and in test [2] was “binds” throughout.

In the case of Gar1 (from UniProt P28007 1-205), the binding entry in test [1] and in test [2] was “binds” throughout.

In the case of “Cbf5 (from UniProt P33322 1-483) (enzyme)”, the binding entry in test [1] and in test [2] was “binds” in each case.

With Nhp2 (from UniProt P32495 1-156), the binding entry in test [1] and in test [2] was “binds” in each case.

B1: Utp23 (protein, UniProt Q12339 1-254)
chain: MRQKRAKSYRKQLLVYSHTFKFREPYQVLVDNQLVLECNNSNFNLPSGLKRTLQADVKVMITQCCIQALYETRNDGAINLAKQFERRRCNHSFKDPKSPAECIESVVNISGANKHRYVVASQDIDLRRKLRTVPGVPLIHLTRSVMVMEPLSTASAKASKITEEQKLYKGLNDPNIEKLQESGDGSGKESITKKRKLGPKAPNPLSVKKKKKVNSPSDEVKDKEDTSKEKKKRRRRKHKSNTNVPVSNGTTAAQ
B1: the binding result in test [3] and in test [4] was “binds” each time.

B2: Rrp7 (protein, UniProt P25368 1-297)
chain: MGIEDISAMKNGFIVVPFKLPDHKALPKSQEASLHFMFAKRHQSSNSNESDCLFLVNLPLLSNIEHMKKFVGQLCGKYDTVSHVEELLYNDEFGLHEVDLSALTSDLMSSTDVNEKRYTPRNTALLKFVDAASINNCWNALKKYSNLHAKHPNELFEWTYTTPSFTTFVNFYKPLDIDYLKEDIHTHMAIFEQREAQAQEDVQSSIVDEDGFTLVVGKNTKSLNSIRKKILNKNPLSKHENKAKPISNIDKKAKKDFYRFQVRERKKQEINQLLSKFKEDQERIKVMKAKRKFNPYT
Regarding B2, the binding entry in test [3] was “binds”; in test [5] it was “binds weakly”; in test [6], “binds weakly”; in test [4], “binds”.

B3: Utp22 (protein, UniProt P53254 1-1237)
chain: MATSVKRKASETSDQNIVKVQKKHSTQDSTTDNGSKENDHSSQAINERTVPEQENDESDTSPESNEVATNTAATRHNGKVTATESYDIHIARETAELFKSNIFKLQIDELLEQVKLKQKHVLKVEKFLHKLYDILQEIPDWEEKSLAEVDSFFKNKIVSVPFVDPKPIPQNTNYKFNYKKPDISLIGSFALKAGIYQPNGSSIDTLLTMPKELFEKKDFLNFRCLHKRSVYLAYLTHHLLILLKKDKLDSFLQLEYSYFDNDPLLPILRISCSKPTGDSLSDYNFYKTRFSINLLIGFPYKVFEPKKLLPNRNCIRIAQESKEQSLPATPLYNFSVLSSSTHENYLKYLYKTKKQTESFVEATVLGRLWLQQRGFSSNMSHSGSLGGFGTFEFTILMAALLNGGGINSNKILLHGFSSYQLFKGVIKYLATMDLCHDGHLQFHSNPENSSSSPASKYIDEGFQTPTLFDKSTKVNILTKMTVSSYQILKEYAGETLRMLNNVVQDQFSNIFLTNISRFDNLKYDLCYDVQLPLGKYNNLETSLAATFGSMERVKFITLENFLAHKITNVARYALGDRIKYIQIEMVGQKSDFPITKRKVYSNTGGNHFNFDFVRVKLIVNPSECDKLVTKGPAHSETMSTEAAVFKNFWGIKSSLRRFKDGSITHCCVWSTSSSEPIISSIVNFALQKHVSKKAQISNETIKKFHNFLPLPNLPSSAKTSVLNLSSFFNLKKSFDDLYKIIFQMKLPLSVKSILPVGSAFRYTSLCQPVPFAYSDPDFFQDVILEFETSPKWPDEITSLEKAKTAFLLKIQEELSANSSTYRSFFSRDESIPYNLEIVTLNILTPEGYGFKFRVLTERDEILYLRAIANARNELKPELEATFLKFTAKYLASVRHTRTLENISHSYQFYSPVVRLFKRWLDTHLLLGHITDELAELIAIKPFVDPAPYFIPGSLENGFLKVLKFISQWNWKDDPLILDLVKPEDDIRDTFETSIGAGSELDSKTMKKLSERLTLAQYKGIQMNFTNLRNSDPNGTHLQFFVASKNDPSGILYSSGIPLPIATRLTALAKVAVNLLQTHGLNQQTINLLFTPGLKDYDFVVDLRTPIGLKSSCGILSATEFKNITNDQAPSNFPENLNDLSEKMDPTYQLVKYLNLKYKNSLILSSRKYIGVNGGEKGDKNVITGLIKPLFKGAHKFRVNLDCNVKPVDDENVILNKEAIFHEIAAFGNDMVINFETD
As to B3, the binding entry in test [3] is given as “binds”; in test [5] it was “binds weakly”; in test [6], “binds weakly”; in test [4], “binds”.

B4: Kri1 (protein, UniProt P42846 1-591)
chain: MPRKKSAAKRAREQAKKEAAVPATDTATIKTSETSATTVKPAIEASKSYVPSEDEEEDEEEEEEEDDYGELITDEVENGINQVLDAIKNNKTDKLLDPKVKFFEDPESAAAKLANREGKHKPIYLKDYHRMNILSGDALKEDDEEYEHATVDGKQSFVSQQREEKTQLLNEIKSAFSDEENEESSGDEDDGFLKKKEPSTKKEGKNLPDPTVNEENFLEEFVNQQAWIPKKGDKVISLDLNNNEEDDEEFEDAAEKFENAYNFRYEDPNAAEIISYARSQATLRRSDDSSRRRKREEKRKIKEQIKAEKETALQKKKTKKLNKLTDILEQLTKEYGAEINADMVKKITDTLLKNDFKEEEWDNVVAELFNEEFYQQEGKPTWNEDDEIMGDFYADADGDDQTEEGEVEKEQKEEDEEEGPKRKKSKKEEKLQKKKEKRKVNELVENALEQNKLALIEEVEKEEEERKSRSRTKEEQDLKFRYREVSPESFGLTAREIFAADDTDLNEFIGLKKFAPYRSKELRAKDKRKVMKARRLREWRKKTFKNENGLAPVEAEAGEKDEDTILIPVEKASKSKHKRGHSHKHKGHQKK
In the case of B4, the binding entry in test [3] and in test [4] was “binds” in each case.

B5: Rok1 (enzyme, UniProt P45818 1-564)
chain: MDIFRVLTRGASVKKESGPKAKAADYSVINGNDENHKEDNNESQIVKELDFFRNKRIISKVEDDREKTTENDSPNKEEKSGNDDGLIKPVITNTVEASALRKSYKGNVSGIDIPLPIGSFEDLISRFSFDKRLLNNLIENGFTEPTPIQCECIPVALNNRDVLACGPTGSGKTLAFLIPLVQQIIDDKQTAGLKGLIISPTKELANQIFIECFKLSYKIFLEKKRPLQVALLSKSLGAKLKNKVVSDKKYDIIISTPLRLIDVVKNEALDLSKVKHLIFDEADKLFDKTFVEQSDDILSACREPSLRKAMFSATIPSNVEEIAQSIMMDPVRVIIGHKEAANTNIEQKLIFCGNEEGKLIAIRQLVQEGEFKPPIIIFLESITRAKALYHELMYDRINVDVIHAERTALQRDRIIERFKTGELWCLICTDVLARGIDFKGVNLVINYDVPGSSQAYVHRIGRTGRGGRSGKAITFYTKQDSVAIKPIINVMKQSGCEVSEWMDKMAKMTRKEKESIKNGKAHKERKQITTVPKMDKAKRRRQQEMIAASKRRKNEELSKKHFSK
Take B5: the binding result was “binds” in test [3], “binds weakly” in test [5], “binds weakly” in test [6] and “binds” in test [4].
